Reference: PubChem BioAssay AID504834 (National Center for Advancing Translational Sciences (NCATS), 2011)
The campaign covered roughly 320,000 compounds. About 22,000 (6.9%) were called active. The shares of active, inactive and inconclusive entries below differ from those in the screen. Calls come from the whole dose curve; as a rule, active = well fitted inhibition curve with a large enough effect; inconclusive = small, poorly fitted or top-dose-only effect, or another doubt; inactive = no such curve, though single readings can be large or run the other way. Potencies beside an inconclusive call are fits to weak or partial responses and may not hold up.

Test: Primary qHTS for delayed death inhibitors of the malarial parasite plastid, 96 hour incubation
Conditions: P. falciparum luciferase reporter growth; series mostly up to 28.7 µM; activity change, negative = inhibition: at the top concentration
Method in brief: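 P. falciparum expressing integrated firefly luciferase grown in erythrocytes (2% hematocrit, 0.05% parasitemia final) with compounds for 96 hours at 37 C, 5% CO2. Growth inhibition read as loss of luminescence after adding luciferase detection reagent.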
% is set by controls: 0 for no effect and ±100 for the full control effect; potency is the fitted concentration of half-maximal effect.

Question: Which Potency does the source give for `O=C(COc1ccccc1[N+](=O)[O-])N/N=C/c1ccc(OC(=O)c2ccco2)cc1` here?
Answer: inconclusive: 11.7 µM [inhibitor, single point]

Question: With `O=C(NCCn1cc(SCc2ccc(F)cc2)c2ccccc21)c1c(F)cccc1F` as the compound, how does the Potency read?
Answer: inconclusive: 1.65 µM [inhibitor, partial curve, poor fit]

Question: Which Potency does the source give for `COc1ccc(CC(=O)Nc2c3c(nn2-c2cccc(Cl)c2)CS(=O)(=O)C3)cc1` here?
Answer: inconclusive: 0.0828 µM [inhibitor, full curve, poor fit]

Question: For `Cc1nc(CCNS(=O)(=O)c2cccnc2)cs1`, which “activity change, negative = inhibition” value is on record?
Answer: inactive: 18.2%

Question: With `O=C(c1cc(-c2ccc(O)cc2)on1)N1CCc2ccccc2C1` as the compound, how does the Potency read?
Answer: active: 0.37 µM

Question: For `COC(=O)c1ccc(CSc2nc(C(F)(F)F)c3c(c2C#N)CCC3)o1`, which Potency is on record?
Answer: inconclusive: 0.294 µM [inhibitor, full curve, poor fit]

Question: For `COc1ccc(NC(=S)N2CCN(c3ccccn3)CC2)cc1`, which Potency is on record?
Answer: inconclusive: 3.7 µM [inhibitor, full curve, poor fit]

Question: Which “activity change, negative = inhibition” value does the source give for `Cc1c(NC(=O)CSc2nc(N)cc(N)n2)c(=O)n(-c2ccccc2)n1C` here?
Answer: inactive: -16.8%

Question: With `COc1ccc(C(C(N)=O)c2ncc(C(F)(F)F)cc2Cl)cc1OC` (stereo unspecified) as the compound, how does the “activity change, negative = inhibition” value read?
Answer: inactive: 1.79%

Question: With `CC(CN1CCC(n2nccc2NC(=O)C2CCCC2)CC1)c1ccccc1` (stereo unspecified) as the compound, how does the Potency read?
Answer: active: 9.28 µM

Question: For `CCCCCOc1ccc(Cn2ccnc2)cc1[N+](=O)[O-]`, which Potency is on record?
Answer: inconclusive: 14.7 µM [inhibitor, single point]

Question: Which “activity change, negative = inhibition” value does the source give for `O=C(O)CNc1nc(-c2ccccc2)nc2ccccc12` here?
Answer: inactive: 9.97%

Question: With `Cc1c(N(C)C(=O)c2ccco2)c(=O)n(-c2ccccc2)n1C` as the compound, how does the Potency read?
Answer: inconclusive: 10.4 µM [inhibitor, single point]

Question: For `CC(C)(C)OC(=O)N1CCC(NC(=O)c2[nH]cnc2C(=O)Nc2cccc(Cl)c2)CC1`, which Potency is on record?
Answer: inconclusive: 10.4 µM [inhibitor, single point]

Question: Which “activity change, negative = inhibition” value does the source give for `COc1cc(NC(=O)c2cc(-c3cccnc3)nc3ccc(Br)cc23)cc(OC)c1` here?
Answer: inactive: -20.9%

Question: Which Potency does the source give for `COC(=O)CNC(=O)c1cccc(Cl)c1` here?
Answer: inconclusive: 18.5 µM [inhibitor, single point]

Question: With `CC1CCN(CC(=O)Nc2ccccc2-c2ccccc2)CC1` as the compound, how does the Potency read?
Answer: inconclusive: 5.22 µM [inhibitor, single point]

Question: Which Potency does the source give for `CC(C)C[C@@H](CSc1ccc(Br)cc1)N1CCN(CC(C)C)CCC1=O` here?
Answer: inconclusive: 18.5 µM [inhibitor, single point]

Question: Which Potency does the source give for `CN(CC(=O)Nc1ccccc1Br)C(=O)CCCSc1nc2ccccc2[nH]1` here?
Answer: inconclusive: 9.28 µM [inhibitor, partial curve]

Question: With `O=C1c2ccccc2C(=O)c2[nH]cnc21` as the compound, how does the Potency read?
Answer: inconclusive: 10.4 µM [inhibitor, partial curve]

Question: For `Cc1ccc(-c2nn3c(C)nnc3c3ccccc23)cc1S(=O)(=O)N1CCN(CCO)CC1`, which Potency is on record?
Answer: inconclusive: 18.5 µM [inhibitor, partial curve, poor fit]

Question: With `O=C(O)CSc1nnc(-c2ccccc2)o1` as the compound, how does the “activity change, negative = inhibition” value read?
Answer: inactive: 11.3%

Question: For `O=C1C2CC=CCC2C(=O)N1c1ccc(N2CCN(c3ccccn3)CC2)c([N+](=O)[O-])c1` (stereo unspecified), which Potency is on record?
Answer: inconclusive: 4.65 µM [inhibitor, partial curve, poor fit]

Question: With `CCn1c(SCc2nc3ccccc3s2)nnc1-c1cccs1` as the compound, how does the Potency read?
Answer: active: 10.4 µM

Question: For `NC(=O)c1nsc(C(=O)N(Cc2ccco2)C(C(=O)NCC2CCCO2)c2ccc(F)cc2)c1N` (stereo unspecified), which Potency is on record?
Answer: inconclusive: 8.28 µM [inhibitor, partial curve]

Question: Which Potency does the source give for `O=C(/C=C/c1ccc(S(=O)(=O)N2CCOCC2)cc1)NCCc1ccc(C(F)(F)F)cc1` here?
Answer: active: 6.57 µM

Question: With `CCCCN1C(=O)N(C)C2NC(=S)NC21` (stereo unspecified) as the compound, how does the “activity change, negative = inhibition” value read?
Answer: inactive: 20.7%

Question: With `CC1CCCN(CCCNC(=O)C2CCCN(c3ncnc4c3nc3n4CCCCC3)C2)C1` (stereo unspecified) as the compound, how does the Potency read?
Answer: inconclusive: 18.5 µM [inhibitor, single point]

Question: For `CC(=NCCC1=CCCCC1)c1c(O)n(-c2ccccc2)c(=O)[nH]c1=O`, which Potency is on record?
Answer: inconclusive: 16.5 µM [inhibitor, single point]

Question: With `Cc1nc(NC(=O)CC(C)C)sc1-c1csc(Nc2ccc(Cl)cc2)n1` as the compound, how does the Potency read?
Answer: active: 4.65 µM

Question: For `O=C(O)C1C2C=CC(C2)C1C(=O)NCc1ccoc1` (stereo unspecified), which Potency is on record?
Answer: inconclusive: 4.15 µM [inhibitor, partial curve, poor fit]

Question: For `CCN1CCC2(CC1)N=C(c1ccc(F)cc1)C(=S)N2`, which Potency is on record?
Answer: inconclusive: 9.28 µM [inhibitor, partial curve]

Question: With `COC(=O)c1ccc(COC(=O)c2ccc(SC)cc2OC)cc1` as the compound, how does the Potency read?
Answer: inconclusive: 18.5 µM [inhibitor, single point]

Question: With `CS(=O)(=O)Nc1cccc(S(=O)(=O)N2CCN(C(=O)c3ccccc3)CC2)c1` as the compound, how does the Potency read?
Answer: inconclusive: 3.7 µM [inhibitor, partial curve, poor fit]

Question: With `CN(Cc1ccccc1)c1nc2c(c(=O)[nH]c(=O)n2C)n1C` as the compound, how does the “activity change, negative = inhibition” value read?
Answer: inactive: 0.973%

Question: Which Potency does the source give for `CCc1ccc(Nc2n[n+](-c3ccccc3)c(-c3cccc(Cl)c3Cl)s2)cc1` here?
Answer: active: 3.7 µM

Question: Which Potency does the source give for `CC(=O)C1=C(C)NC(SCC(=O)c2ccc(Cl)cc2Cl)=C(C#N)C1c1ccco1` (stereo unspecified) here?
Answer: inconclusive: 18.5 µM [inhibitor, single point]

Question: Which Potency does the source give for `CN1N=C2c3ccccc3CCC2C1c1ccc(F)cc1` (stereo unspecified) here?
Answer: active: 1.65 µM

Question: For `COc1ccc(C(C)=O)cc1CN1C(=O)NC2(CCCC2)C1=O`, which Potency is on record?
Answer: inconclusive: 8.28 µM [inhibitor, partial curve, poor fit]

Question: With `COc1ccc([C@H]2CC(=O)C=C(/C=C/c3ccc(Cl)cc3)C2)cc1` as the compound, how does the “activity change, negative = inhibition” value read?
Answer: inactive: 37.3%

Question: For `COc1ccnc(CSC(N)=Nc2cccc(C(F)(F)F)c2)c1`, which Potency is on record?
Answer: inconclusive: 18.5 µM [inhibitor, single point]

Question: With `CC(=O)c1ccc(NS(=O)(=O)c2cc(-c3cnc(C4CC4)o3)ccc2C)cc1` as the compound, how does the Potency read?
Answer: inconclusive: 18.5 µM [inhibitor, single point]

Question: With `O=C(N/N=C/c1ccc[nH]1)c1ccc(O)cc1` as the compound, how does the Potency read?
Answer: active: 10.4 µM

Question: For `NS(=O)(=O)c1ccc(NC(=O)COC(=O)CC2Sc3ccccc3NC2=O)cc1` (stereo unspecified), which “activity change, negative = inhibition” value is on record?
Answer: inactive: 2.69%

Question: For `COc1ccccc1C(=O)Nc1c(C(=O)N(CCN(C)C)Cc2ccco2)oc2ccccc12`, which Potency is on record?
Answer: active: 10.4 µM

Question: With `Nc1ccccc1Oc1c(F)c(F)c(Oc2ccccc2N)c(F)c1F` as the compound, how does the Potency read?
Answer: inconclusive: 13.1 µM [inhibitor, partial curve, poor fit]

Question: For `COc1ccc(CNC(=O)Cc2csc(Nc3nc(=S)[nH]c4ccccc34)n2)cc1`, which Potency is on record?
Answer: inconclusive: 2.94 µM [inhibitor, partial curve, poor fit]

Question: Which Potency does the source give for `S=c1[nH]c2ccccc2n1CCOc1ccccc1` here?
Answer: inconclusive: 0.0033 µM [inhibitor, full curve, poor fit]

Question: Which Potency does the source give for `COc1ccc(NC(=O)c2ccccc2[N+](=O)[O-])cc1` here?
Answer: inconclusive: 18.5 µM [inhibitor, single point]

Question: With `CN(C)c1ccc(N=Cc2cccn2C)cc1` as the compound, how does the Potency read?
Answer: inconclusive: 11.7 µM [inhibitor, single point]

Question: With `COc1cc(NC(=O)c2ccc(CNc3c(N4CCCC4)c(=O)c3=O)cc2)cc(OC)c1OC` as the compound, how does the Potency read?
Answer: inconclusive: 16.5 µM [inhibitor, single point]

Question: With `N#C/C(=C/Nc1ccccc1C(=O)O)C(N)=O` as the compound, how does the Potency read?
Answer: inconclusive: 3.7 µM [inhibitor, partial curve]

Question: For `O=C(COC(=O)CNC(=O)c1ccccc1F)NCC(F)(F)F`, which Potency is on record?
Answer: inconclusive: 1.17 µM [inhibitor, partial curve, poor fit]

Question: With `COC(=O)c1ccc(NC(=O)COc2coc(CN3CCc4ccccc43)cc2=O)cc1` as the compound, how does the “activity change, negative = inhibition” value read?
Answer: inactive: 0.141%

Question: With `Cc1ccc(NC(=O)c2ccc(Cn3cc(Cl)cn3)o2)c(C)c1` as the compound, how does the Potency read?
Answer: inconclusive: 18.5 µM [inhibitor, single point]

Question: For `CC1CC(=O)c2cnc(N)nc2C1` (stereo unspecified), which Potency is on record?
Answer: inconclusive: 1.65 µM [inhibitor, single point]

Question: For `O=C(CN(C(=O)CCC(=O)Nc1ccccn1)c1ccc(F)cc1)NCc1ccco1`, which Potency is on record?
Answer: inconclusive: 18.5 µM [inhibitor, single point]

Question: For `CCC1S/C(=N/N=C/c2ccco2)N(c2ccc(F)cc2)C1=O` (stereo unspecified), which Potency is on record?
Answer: inconclusive: 9.28 µM [inhibitor, single point]

Question: With `CCOC(=O)N1CCN(C(=O)CCSc2ccc(Cl)cc2)CC1` as the compound, how does the “activity change, negative = inhibition” value read?
Answer: inactive: -19.9%

Question: Which “activity change, negative = inhibition” value does the source give for `CCN(CC)C(=O)CN1C(=O)C2(OCC(C)(C)CO2)c2ccccc21` here?
Answer: inactive: -31.3%

Question: Which “activity change, negative = inhibition” value does the source give for `O=C(CN1C(=O)C2(OCCCO2)c2ccccc21)NCc1ccccc1` here?
Answer: inactive: 70.5%

Question: For `CCC(=O)Oc1ccc2oc(=O)cc(C)c2c1`, which “activity change, negative = inhibition” value is on record?
Answer: inactive: -1.75%

Question: Which Potency does the source give for `COc1ccc(S(=O)(=O)n2nc(-n3c(C)ccc3C)c3c(F)cccc32)cc1OC` here?
Answer: inconclusive: 11.7 µM [inhibitor, partial curve]

Question: With `COc1ccc(Nc2c(-c3ccco3)nc3ccc(C)cn23)cc1` as the compound, how does the Potency read?
Answer: inconclusive: 2.94 µM [inhibitor, full curve, poor fit]

Question: Which “activity change, negative = inhibition” value does the source give for `COc1ccc(Cl)cc1NC(=O)CN(C)C(=O)c1sccc1-c1ccccc1` here?
Answer: inactive: -54.2%

Question: Which Potency does the source give for `O=C(NCc1ccco1)C1CCCN(S(=O)(=O)c2cccc3cccnc23)C1` (stereo unspecified) here?
Answer: inconclusive: 18.5 µM [inhibitor, partial curve, poor fit]

Question: With `CCCCn1c(=O)c(CCC(=O)OCC(=O)Nc2ccc(F)c(Cl)c2)nc2ccccc21` as the compound, how does the “activity change, negative = inhibition” value read?
Answer: inactive: 2.69%

Question: With `CCOC(=O)c1ccc2nc(NC(=O)C(C)C)sc2c1` as the compound, how does the “activity change, negative = inhibition” value read?
Answer: inactive: -52.2%

Question: Which Potency does the source give for `CC1(C)CC2(CCCN(CC(O)(c3ccccc3)c3ccccc3)C2)CCO1` (stereo unspecified) here?
Answer: inconclusive: 10.4 µM [inhibitor, single point]

Question: For `O=C(Cc1ccccc1F)NC1CCCN(Cc2ccc(Cl)cc2)C1` (stereo unspecified), which Potency is on record?
Answer: inconclusive: 4.15 µM [inhibitor, single point]

Question: For `Cc1ccc(NC(=O)CCN2C(=O)c3cccc4cccc(c34)C2=O)cc1`, which Potency is on record?
Answer: inconclusive: 4.65 µM [inhibitor, partial curve, poor fit]
